This is an account of results in patent publication US20120231072A1, “THERMO-RESPONSIVE HYDROGEL COMPOSITIONS” (Chemisches Institut Schaefer AG, priority 2011, published 2012).

Structures can show the parent of a compound that is named as a salt. Marks after values point to notes of the source that are not given here.

Data set [1] can be described thus: Drug encapsulation efficiency in PLGA particles. In kind it is physicochemical. To be noted: spectrophotometry at 240 nm. The protocol:
PLGA (50 mg) was dissolved in dichloromethane (1 ml) followed by the addition of 0.1 ml DSP methanol solution (50 mg/ml). The clear organic mixture was emulsified into an external aqueous phase (5 ml, 2% w/v PVA) with vortexing for 20 seconds followed by sonication on ice at 55 W for 5 minutes. […] Nanospheres were harvested by ultracentrifugation at 16,000 g for 10 min, after which the resultant pellet was re-suspended in DI water by sonication and washed twice with DI water. To quantify drug encapsulation, the PLGA nanospheres were incubated overnight in 1N NaOH solution at 37° C. to allow complete PLGA degradation. The resultant solution was read spectrophotometrically at 240 nm for DSP concentration. Dynamic light scattering (DLS) was used to characterize the size of the nanospheres. […]
To test encapsulation efficiency, 1 ml of the PLGA microspheres and nanospheres suspensions were incubated overnight in 1 N NaOH solution at 37° C. to completely degrade PLGA in order to determine the total amount encapsulated in the PLGS. The drug concentration was determined spectrophotometrically at 240 nm. […] The encapsulation efficiency was calculated as (actual drug loaded/total drug used)×100%.

A further data set concerns 3T3 fibroblast cells. Put plainly: Fibroblast MTS anti-proliferative activity assay. In kind it is cell-based. As to conditions: mouse fibroblast cells, previous tests. As to the method:
PLGA nanospheres with DSP were loaded into the thermo-responsive hydrogels at 10 mg/ml. […] After cells were grown to semiconfluence, growth was arrested by washing plates with PBS and then adding low serum medium with DMEM, 0.5% (v/v) FBS and 1% (v/v) penicillin/streptomycin mixture. Growth arrest was maintained for 24 hours. […] PBS was added to growth medium as control group.

As for `C[C@@H]1C[C@H]2[C@@H]3CCC4=CC(=O)C=C[C@]4(C)[C@@]3(F)[C@@H](O)C[C@]2(C)[C@@]1(O)C(=O)COP(=O)(O)O` [DSP, Dexamethasone 21-phosphate disodium salt], the Encapsulation efficiency in data set [1] (Microspheres) was 7.6%^#; in data set [1] (Nanospheres), 30%^#. The anti-proliferative activity entry in the data set on 3T3 fibroblast cells was “dose-dependent anti-proliferative activity”.
